{"source": "PubChem BioAssay AID493014", "about": "(National Center for Advancing Translational Sciences (NCATS), 2011)", "note": "Some of the results follow. Further columns of the screen follow, without active or inactive calls. The list favours compounds with an active or inconclusive main result. Potencies come from curve fits of mixed quality, noted in brackets.", "data": [{"test": "qHTS Assay to Find Inhibitors of Chronic Active B-Cell Receptor Signaling", "conditions": "ABC-DLBCL IkBa-CBG/CBR reporter, luminescence ratio (green luciferase fused to IkBa over red control in TMD8 lymphoma cells), 4 h; measured here: CBR red luminescence, cell number", "outline": "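Doxycycline induced both beetle luciferases in TMD8 lymphoma cells; IKK-driven degradation limits the IkappaBalpha-fused green signal, while red luminescence normalises for cell number and nonspecific effects. Compounds tested up to 46 uM, 4 hrs.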", "values": [{"smiles": "O=C(CSc1cccc2cccnc12)N/N=C/c1cccnc1", "AC50": "35.5 µM [falling, single point]"}, {"smiles": "Cc1oc(C(=O)O)cc1COc1ccc2c3c(c(=O)oc2c1)CCC3", "AC50": "9.2 µM [falling, partial curve, poor fit]"}, {"smiles": "COc1ccc(NC(=O)c2cccc(S(=O)(=O)Nc3ccc(Br)cc3)c2)cn1", "AC50": "3.66 µM [falling, full curve]"}, {"smiles": "CC(=O)c1cc2c(cc1N/C(=N/S(=O)(=O)c1ccccc1)c1ccc(Cl)cc1)OCO2", "AC50": "4.11 µM [rising, full curve, poor fit]"}, {"smiles": "O=C(Nc1cccc(-c2nc3ncccc3o2)c1)c1cc2ccccc2o1", "AC50": "18.4 µM [falling, single point]"}, {"smiles": "O=c1cc(-c2ccccc2)nc2nc(-c3ccco3)[nH]n12", "AC50": "2.06 µM [falling, full curve]"}, {"smiles": "Cc1ccccc1OCCC(=O)OCC(=O)N1c2ccccc2NC(=O)C1(C)C", "AC50": "29.1 µM [falling, single point]"}, {"smiles": "O=C(NCCc1c[nH]c2ccccc12)OCCCCOC(=O)NCCc1c[nH]c2ccccc12", "AC50": "18.4 µM [falling, single point]"}, {"smiles": "CCOc1ccccc1NC(=O)COC(=O)C1CC(=O)N(c2c(C)cccc2C)C1", "note": "(configuration not stated)", "AC50": "11.2 µM [falling, partial curve, poor fit]"}, {"smiles": "CCOC(=O)c1ccc(S(=O)(=O)N2CCN(CC(=O)NC(=O)NC3CCCCC3)CC2)cc1", "AC50": "0.501 µM [falling, full curve, poor fit]"}, {"smiles": "Cc1cc(C(=O)OCC(=O)c2cccc([N+](=O)[O-])c2)c2ccccc2n1", "AC50": "16.4 µM [falling, partial curve, poor fit]"}, {"smiles": "COCCn1c(-c2ccc(OC)cc2)cnc1SCC(=O)Nc1cccc2ccccc12", "AC50": "29.1 µM [falling, single point]"}, {"smiles": "O=C(N/N=C/c1ccncc1)c1cccc(NC(=O)c2ccccc2Cl)c1", "AC50": "5.8 µM [falling, full curve]"}, {"smiles": "CCOC(=O)c1c(CN2CCCCC2)oc2ccc(OC)cc12", "AC50": "17.8 µM [rising, single point]"}, {"smiles": "COc1cc(C(=O)N2CCN(Cc3ccccc3C(F)(F)F)CC2)cc(OC)c1OC", "AC50": "3.55 µM [rising, single point]"}, {"smiles": "O=C(CSC1=NS(=O)(=O)c2cc(F)ccc2N1)Nc1cccc(F)c1", "AC50": "23.1 µM [falling, partial curve, poor fit]"}, {"smiles": "CC(Oc1ccc(F)cc1)C(=O)N(Cc1ccccc1)c1c(N)n(Cc2ccccc2)c(=O)[nH]c1=O", "note": "(configuration not stated)", "AC50": "29.1 µM [falling, single point]"}]}]}
